Measured values as given in publication PMC12034783.

Sequences of proteins named here, by UniProt entry; tags and fusion partners are left off. A change or cut given only in a name is not applied to a line headed by its entry. Residues count along the entry.
UniProt Q15910: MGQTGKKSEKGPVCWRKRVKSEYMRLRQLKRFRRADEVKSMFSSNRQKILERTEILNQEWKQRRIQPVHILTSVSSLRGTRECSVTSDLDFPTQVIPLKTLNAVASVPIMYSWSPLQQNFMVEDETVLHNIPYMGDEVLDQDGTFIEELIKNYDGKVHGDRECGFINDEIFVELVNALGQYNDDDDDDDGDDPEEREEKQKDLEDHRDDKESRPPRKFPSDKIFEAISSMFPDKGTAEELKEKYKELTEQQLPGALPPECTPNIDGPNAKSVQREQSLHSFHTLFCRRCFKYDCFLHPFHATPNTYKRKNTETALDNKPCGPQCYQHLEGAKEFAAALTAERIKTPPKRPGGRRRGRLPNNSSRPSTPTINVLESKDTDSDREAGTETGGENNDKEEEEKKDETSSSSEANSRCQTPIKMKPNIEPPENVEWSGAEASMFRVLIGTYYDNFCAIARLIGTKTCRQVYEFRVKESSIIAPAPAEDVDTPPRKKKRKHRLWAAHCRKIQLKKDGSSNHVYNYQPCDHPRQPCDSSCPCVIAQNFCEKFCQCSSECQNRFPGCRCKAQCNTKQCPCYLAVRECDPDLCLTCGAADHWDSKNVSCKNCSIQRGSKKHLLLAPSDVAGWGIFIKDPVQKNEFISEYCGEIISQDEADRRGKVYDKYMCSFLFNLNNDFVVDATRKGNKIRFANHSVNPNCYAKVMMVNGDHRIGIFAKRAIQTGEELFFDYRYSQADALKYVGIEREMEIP
UniProt P62258: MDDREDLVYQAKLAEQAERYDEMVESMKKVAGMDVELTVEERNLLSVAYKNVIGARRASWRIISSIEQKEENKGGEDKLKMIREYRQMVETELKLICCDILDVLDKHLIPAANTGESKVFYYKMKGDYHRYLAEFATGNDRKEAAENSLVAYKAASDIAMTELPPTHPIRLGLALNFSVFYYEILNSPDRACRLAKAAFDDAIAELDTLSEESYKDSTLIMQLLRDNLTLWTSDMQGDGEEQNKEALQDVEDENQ
UniProt P07339: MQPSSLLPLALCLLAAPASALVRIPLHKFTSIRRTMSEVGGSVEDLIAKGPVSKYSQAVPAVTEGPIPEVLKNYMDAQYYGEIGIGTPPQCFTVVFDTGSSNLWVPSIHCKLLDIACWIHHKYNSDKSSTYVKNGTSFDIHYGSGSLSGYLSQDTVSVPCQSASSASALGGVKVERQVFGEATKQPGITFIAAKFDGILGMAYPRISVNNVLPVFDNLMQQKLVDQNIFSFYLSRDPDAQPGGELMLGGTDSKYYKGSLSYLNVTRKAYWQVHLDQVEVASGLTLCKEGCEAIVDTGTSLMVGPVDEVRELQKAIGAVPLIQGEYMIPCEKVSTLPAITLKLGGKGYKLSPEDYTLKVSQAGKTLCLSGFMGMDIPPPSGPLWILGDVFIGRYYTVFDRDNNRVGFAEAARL
UniProt Q13510, residues 22-395: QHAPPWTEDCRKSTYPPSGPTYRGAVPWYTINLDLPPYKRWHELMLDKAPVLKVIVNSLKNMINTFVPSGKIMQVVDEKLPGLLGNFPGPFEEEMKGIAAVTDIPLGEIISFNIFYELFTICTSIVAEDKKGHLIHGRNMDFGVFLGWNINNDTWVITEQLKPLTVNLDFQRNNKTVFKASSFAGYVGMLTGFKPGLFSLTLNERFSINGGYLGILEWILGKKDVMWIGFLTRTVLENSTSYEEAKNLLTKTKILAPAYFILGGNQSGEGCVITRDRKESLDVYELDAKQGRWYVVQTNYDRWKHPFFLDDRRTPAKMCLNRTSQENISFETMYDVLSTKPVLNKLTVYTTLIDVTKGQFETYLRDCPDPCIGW
UniProt P28074: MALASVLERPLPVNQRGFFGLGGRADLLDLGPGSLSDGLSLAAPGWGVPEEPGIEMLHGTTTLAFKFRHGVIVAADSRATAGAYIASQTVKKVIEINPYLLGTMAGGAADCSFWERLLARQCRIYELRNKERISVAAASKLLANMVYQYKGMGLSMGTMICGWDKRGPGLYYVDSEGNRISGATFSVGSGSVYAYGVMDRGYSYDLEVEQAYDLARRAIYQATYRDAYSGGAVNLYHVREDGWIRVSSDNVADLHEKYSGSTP

How the values were obtained:
[1] = biological target: Enhancer of Zeste Homolog-2 (EZH2) (human (endogenous in EA.hy926 and HUVEC)) (UniProt Q15910); test: condition: only cells exposed to GSNO (100 uM) for 30 min; affinity purification with mass spectrometry; as a5, HUVEC treated with GSNO (100 uM) for 30 min before lysis; abundances of PRC2 proteins normalised to that of EZH2 and compared with untreated cells
[2] = biological target: Enhancer of Zeste Homolog-2 (EZH2) (human (endogenous in EA.hy926 and HUVEC)) (UniProt Q15910); test: affinity purification with mass spectrometry; EZH2 mAb on protein A magnetic beads, overnight with 1000 ug of HUVEC lysate in RIPA buffer, tryptic digest, LC-MS/MS (Orbitrap Exploris); untreated control cells (for partners said to be unchanged also the GSNO sample); two biological replicates
[3] = biological target: Enhancer of Zeste Homolog-2 (EZH2) (human (endogenous in EA.hy926 and HUVEC)) (UniProt Q15910); test: affinity purification with mass spectrometry; as a5, HUVEC treated with GSNO (100 uM) for 30 min before lysis; abundances of PRC2 proteins normalised to that of EZH2 and compared with untreated cells

binding [1] | binding [3] | Substance | binding [2]
no binding |  | 14-3-3 epsilon (from UniProt P62258 1-255) | binds
 | binds | cathepsin D lysosomal protease (from UniProt P07339) (enzyme) | no binding (only control cells without GSNO)
 | binds | lysosomal acid ceramidase (from UniProt Q13510 22-395) (enzyme) | no binding (only control cells without GSNO)
 | binds | proteasome subunit beta type-5 (from UniProt P28074) | no binding (only control cells without GSNO)

Results are given in words; binding and its absence hold for the method and conditions named. Binding seen in cells or lysates may run through a third protein. Here binding means that the protein was enriched with, or labelled near, the bait; the list need not be complete. For some assays here: A no says only that the protein was not detected with the bait.
